From the supplement of paper PMC10849652
Some of the results follow.

Protein sequences, listed by entry. Tags and fused reporters are not part of them. Lines headed by an entry give the natural chain unless they say otherwise; changes in a name come on top.
UniProt Q92551: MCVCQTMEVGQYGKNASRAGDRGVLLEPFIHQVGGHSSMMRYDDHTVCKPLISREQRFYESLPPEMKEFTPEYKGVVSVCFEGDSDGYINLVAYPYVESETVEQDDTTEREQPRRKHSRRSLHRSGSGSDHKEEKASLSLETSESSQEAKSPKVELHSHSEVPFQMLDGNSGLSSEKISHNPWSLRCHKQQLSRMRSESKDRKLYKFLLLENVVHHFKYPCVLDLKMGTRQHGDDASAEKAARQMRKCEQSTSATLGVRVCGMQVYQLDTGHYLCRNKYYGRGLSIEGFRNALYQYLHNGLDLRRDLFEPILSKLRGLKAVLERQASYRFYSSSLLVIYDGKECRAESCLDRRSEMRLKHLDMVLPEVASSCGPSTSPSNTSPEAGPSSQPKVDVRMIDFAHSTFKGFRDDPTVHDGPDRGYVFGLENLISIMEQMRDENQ
UniProt Q13422: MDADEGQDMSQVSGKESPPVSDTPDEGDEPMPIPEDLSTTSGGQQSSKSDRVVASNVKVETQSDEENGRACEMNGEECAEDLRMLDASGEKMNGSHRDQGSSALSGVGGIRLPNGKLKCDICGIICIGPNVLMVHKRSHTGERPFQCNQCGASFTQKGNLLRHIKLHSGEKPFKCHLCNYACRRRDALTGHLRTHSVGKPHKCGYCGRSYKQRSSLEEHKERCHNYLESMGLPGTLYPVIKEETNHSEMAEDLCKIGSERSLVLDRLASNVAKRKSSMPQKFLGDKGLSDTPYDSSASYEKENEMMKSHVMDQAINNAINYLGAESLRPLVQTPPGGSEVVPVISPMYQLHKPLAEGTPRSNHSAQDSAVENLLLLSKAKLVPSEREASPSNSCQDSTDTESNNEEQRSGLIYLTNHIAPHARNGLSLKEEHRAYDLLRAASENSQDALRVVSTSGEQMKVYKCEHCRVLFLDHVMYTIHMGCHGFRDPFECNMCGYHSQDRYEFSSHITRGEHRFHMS
UniProt O14713: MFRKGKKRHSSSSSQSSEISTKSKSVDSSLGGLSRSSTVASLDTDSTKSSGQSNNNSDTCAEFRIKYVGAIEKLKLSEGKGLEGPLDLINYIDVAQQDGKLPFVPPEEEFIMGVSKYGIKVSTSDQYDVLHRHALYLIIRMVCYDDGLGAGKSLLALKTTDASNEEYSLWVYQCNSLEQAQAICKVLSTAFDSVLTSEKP
UniProt Q6UWB1, whole entry, looked up: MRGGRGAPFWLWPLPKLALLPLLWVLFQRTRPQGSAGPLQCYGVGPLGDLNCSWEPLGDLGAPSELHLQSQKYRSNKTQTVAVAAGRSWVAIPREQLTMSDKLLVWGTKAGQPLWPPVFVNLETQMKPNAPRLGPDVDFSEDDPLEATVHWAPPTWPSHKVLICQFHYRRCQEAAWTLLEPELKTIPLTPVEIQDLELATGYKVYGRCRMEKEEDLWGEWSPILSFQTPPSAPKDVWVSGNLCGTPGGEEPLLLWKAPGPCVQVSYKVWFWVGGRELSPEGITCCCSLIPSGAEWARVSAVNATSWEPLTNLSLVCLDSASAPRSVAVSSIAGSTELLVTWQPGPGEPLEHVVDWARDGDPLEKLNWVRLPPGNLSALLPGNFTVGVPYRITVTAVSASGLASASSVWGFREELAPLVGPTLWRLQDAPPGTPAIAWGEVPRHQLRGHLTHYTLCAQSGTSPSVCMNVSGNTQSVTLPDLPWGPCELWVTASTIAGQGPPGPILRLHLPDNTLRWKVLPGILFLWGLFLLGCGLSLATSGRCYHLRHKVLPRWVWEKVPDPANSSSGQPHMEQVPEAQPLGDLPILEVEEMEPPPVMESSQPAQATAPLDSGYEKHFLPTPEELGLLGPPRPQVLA
UniProt O15397, whole entry, looked up: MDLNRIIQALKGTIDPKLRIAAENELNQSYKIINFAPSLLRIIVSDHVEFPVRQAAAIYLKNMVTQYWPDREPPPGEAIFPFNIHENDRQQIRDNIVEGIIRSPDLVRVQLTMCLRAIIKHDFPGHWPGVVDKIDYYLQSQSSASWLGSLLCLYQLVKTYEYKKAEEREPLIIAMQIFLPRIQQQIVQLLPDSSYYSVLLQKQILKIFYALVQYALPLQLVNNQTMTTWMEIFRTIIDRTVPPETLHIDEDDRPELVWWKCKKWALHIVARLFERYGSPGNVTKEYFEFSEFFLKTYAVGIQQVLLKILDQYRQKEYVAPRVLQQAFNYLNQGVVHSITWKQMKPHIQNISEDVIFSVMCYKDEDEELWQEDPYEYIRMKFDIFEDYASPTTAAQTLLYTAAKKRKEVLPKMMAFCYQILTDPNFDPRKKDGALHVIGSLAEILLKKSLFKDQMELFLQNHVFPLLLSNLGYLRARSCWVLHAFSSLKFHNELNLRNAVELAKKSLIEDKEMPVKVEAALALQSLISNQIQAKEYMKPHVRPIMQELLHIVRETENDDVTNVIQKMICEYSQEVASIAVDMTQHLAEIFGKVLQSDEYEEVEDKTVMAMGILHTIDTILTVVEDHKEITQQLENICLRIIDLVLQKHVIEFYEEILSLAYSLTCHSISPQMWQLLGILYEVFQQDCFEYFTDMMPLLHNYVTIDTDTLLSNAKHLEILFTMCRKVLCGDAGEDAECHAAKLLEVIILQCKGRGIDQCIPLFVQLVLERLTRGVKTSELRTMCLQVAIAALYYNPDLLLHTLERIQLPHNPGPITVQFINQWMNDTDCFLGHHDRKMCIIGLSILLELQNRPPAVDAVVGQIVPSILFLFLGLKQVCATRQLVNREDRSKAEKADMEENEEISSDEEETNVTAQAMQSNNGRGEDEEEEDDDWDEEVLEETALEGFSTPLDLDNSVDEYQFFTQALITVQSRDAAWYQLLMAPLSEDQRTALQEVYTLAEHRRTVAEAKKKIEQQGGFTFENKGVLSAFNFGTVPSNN
UniProt Q8NBZ0, whole entry, looked up: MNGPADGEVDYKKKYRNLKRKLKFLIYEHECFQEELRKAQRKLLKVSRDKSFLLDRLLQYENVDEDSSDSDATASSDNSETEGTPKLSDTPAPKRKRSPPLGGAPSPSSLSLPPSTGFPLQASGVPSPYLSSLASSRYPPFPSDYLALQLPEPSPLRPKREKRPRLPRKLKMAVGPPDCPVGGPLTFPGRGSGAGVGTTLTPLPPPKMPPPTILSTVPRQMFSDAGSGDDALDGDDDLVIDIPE
UniProt P0DMQ5: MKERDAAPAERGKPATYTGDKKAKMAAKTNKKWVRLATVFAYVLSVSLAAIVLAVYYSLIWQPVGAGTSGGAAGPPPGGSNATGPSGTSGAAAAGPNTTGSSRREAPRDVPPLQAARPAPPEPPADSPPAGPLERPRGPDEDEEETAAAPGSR
UniProt Q969P0: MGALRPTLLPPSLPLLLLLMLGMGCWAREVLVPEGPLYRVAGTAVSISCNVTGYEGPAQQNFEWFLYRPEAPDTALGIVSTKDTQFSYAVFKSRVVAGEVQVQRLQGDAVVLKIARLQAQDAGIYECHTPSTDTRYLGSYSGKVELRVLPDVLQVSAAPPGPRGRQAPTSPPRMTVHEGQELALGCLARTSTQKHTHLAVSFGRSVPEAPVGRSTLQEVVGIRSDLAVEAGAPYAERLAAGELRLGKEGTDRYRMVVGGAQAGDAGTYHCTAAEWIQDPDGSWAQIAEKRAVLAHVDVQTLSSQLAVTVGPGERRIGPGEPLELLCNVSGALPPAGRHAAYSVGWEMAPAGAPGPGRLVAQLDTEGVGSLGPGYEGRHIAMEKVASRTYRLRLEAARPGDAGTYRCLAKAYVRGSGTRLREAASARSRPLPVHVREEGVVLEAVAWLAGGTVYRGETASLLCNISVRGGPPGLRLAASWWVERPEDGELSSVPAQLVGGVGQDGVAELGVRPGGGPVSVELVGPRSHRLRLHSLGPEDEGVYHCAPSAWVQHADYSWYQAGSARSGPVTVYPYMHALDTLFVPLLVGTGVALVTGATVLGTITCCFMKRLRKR
UniProt Q969R8: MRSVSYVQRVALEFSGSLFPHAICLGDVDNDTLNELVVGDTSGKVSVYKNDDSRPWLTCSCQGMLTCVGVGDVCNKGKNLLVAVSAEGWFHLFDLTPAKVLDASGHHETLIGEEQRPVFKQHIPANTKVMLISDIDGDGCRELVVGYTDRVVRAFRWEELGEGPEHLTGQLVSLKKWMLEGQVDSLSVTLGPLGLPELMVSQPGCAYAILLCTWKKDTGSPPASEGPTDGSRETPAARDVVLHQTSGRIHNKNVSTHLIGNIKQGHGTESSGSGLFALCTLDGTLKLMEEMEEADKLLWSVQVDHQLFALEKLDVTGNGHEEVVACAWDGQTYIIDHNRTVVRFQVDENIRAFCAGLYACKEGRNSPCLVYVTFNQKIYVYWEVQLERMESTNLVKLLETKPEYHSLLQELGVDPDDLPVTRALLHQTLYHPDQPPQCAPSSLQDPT
UniProt P17936, whole entry, looked up: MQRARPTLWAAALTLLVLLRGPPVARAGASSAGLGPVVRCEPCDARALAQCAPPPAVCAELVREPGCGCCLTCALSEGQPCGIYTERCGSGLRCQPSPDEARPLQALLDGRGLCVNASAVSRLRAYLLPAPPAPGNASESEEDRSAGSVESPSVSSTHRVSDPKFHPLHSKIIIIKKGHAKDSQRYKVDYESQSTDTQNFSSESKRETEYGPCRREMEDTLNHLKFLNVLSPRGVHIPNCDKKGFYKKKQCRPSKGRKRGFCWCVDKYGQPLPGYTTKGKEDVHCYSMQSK
UniProt Q86VI3: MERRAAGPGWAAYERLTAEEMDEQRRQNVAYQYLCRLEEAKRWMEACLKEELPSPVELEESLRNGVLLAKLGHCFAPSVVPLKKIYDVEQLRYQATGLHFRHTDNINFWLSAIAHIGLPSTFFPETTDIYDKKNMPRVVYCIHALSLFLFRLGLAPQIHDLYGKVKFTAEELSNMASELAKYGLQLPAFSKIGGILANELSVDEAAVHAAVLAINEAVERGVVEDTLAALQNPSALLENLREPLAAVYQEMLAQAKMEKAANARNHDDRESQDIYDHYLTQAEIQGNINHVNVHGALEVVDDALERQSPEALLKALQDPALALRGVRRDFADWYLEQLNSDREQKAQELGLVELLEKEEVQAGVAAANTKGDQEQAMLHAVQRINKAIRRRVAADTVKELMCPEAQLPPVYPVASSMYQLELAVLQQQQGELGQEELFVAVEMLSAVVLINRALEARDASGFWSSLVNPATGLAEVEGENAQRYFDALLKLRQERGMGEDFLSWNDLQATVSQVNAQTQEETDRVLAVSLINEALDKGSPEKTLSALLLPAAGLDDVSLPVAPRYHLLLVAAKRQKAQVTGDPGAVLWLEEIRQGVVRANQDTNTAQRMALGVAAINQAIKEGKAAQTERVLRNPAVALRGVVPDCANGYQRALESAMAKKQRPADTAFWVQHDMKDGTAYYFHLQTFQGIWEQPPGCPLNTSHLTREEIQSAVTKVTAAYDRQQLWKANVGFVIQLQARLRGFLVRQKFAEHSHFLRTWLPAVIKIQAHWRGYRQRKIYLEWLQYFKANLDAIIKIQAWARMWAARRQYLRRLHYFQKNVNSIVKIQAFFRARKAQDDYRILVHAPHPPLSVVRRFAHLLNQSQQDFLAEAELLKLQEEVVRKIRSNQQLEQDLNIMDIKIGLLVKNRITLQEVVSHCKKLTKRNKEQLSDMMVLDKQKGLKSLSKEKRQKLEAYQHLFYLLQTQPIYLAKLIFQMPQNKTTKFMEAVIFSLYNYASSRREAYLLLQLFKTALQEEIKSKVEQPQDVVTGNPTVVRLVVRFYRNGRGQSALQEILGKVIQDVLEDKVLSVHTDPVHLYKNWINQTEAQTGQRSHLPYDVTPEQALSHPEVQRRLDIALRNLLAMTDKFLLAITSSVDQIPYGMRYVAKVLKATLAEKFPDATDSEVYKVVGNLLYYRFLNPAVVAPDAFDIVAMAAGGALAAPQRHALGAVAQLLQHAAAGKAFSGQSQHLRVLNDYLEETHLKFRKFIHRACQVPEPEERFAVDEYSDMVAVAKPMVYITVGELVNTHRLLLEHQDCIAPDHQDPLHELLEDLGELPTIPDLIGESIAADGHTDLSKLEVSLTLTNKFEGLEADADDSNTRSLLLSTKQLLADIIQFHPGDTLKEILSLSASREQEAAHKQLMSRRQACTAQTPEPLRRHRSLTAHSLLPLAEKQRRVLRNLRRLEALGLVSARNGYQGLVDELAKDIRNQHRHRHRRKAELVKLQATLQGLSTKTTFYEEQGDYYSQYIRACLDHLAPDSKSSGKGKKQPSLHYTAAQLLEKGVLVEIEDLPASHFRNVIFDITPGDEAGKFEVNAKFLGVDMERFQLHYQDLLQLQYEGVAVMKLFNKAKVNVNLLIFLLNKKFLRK
UniProt Q8IY31, whole entry, looked up: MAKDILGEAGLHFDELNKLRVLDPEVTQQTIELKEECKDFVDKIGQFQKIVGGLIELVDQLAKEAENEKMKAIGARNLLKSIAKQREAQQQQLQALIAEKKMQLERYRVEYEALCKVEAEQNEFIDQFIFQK

Columns and labels:
Experiment in all cases: log2 fold change, soluble protein after heating vs DMSO (PISA); higher = thermal stabilisation; K562 cells, 10 uM, 30 min; active = over 0.2 and 3.5 SD of the protein, either way, in both replicates (recomputed)
bafetinib = compound: Cc1ccc(NC(=O)c2ccc(CN3CC[C@H](N(C)C)C3)c(C(F)(F)F)c2)cc1Nc1nccc(-c2cncnc2)n1 [bafetinib]
Method in brief: (§1)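 K562 cells at 2×10^6 cells/mL were treated for 30 min with 10 μM compound, and aliquots were heated for 3 min over 48°C-58°C before pooling. Extraction used PBS with 0.5% NP-40 at 4°C, and soluble protein was the supernatant after 21,000xg for 90 min, measured by TMTpro 16plex LC-MS/MS with channel sums equalised. Thermal stability values, relative to control samples and from duplicates, are log2 fold changes.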

dasatinib = compound: Cc1nc(Nc2ncc(C(=O)Nc3c(C)cccc3Cl)s2)cc(N2CCN(CCO)CC2)n1 [dasatinib]
Method in brief: as §1

[1] = compound: Cn1cc(-c2ccc3c(c2)CCN3C(=O)Cc2cccc(C(F)(F)F)c2)c2c(N)ncnc21
Method in brief: as §1

[2] = compound: Cn1cc(-c2ccc3nnc(C(F)(F)c4ccc5ncccc5c4)n3n2)cn1
Method in brief: as §1

tipifarnib = compound: Cn1cncc1[C@@](N)(c1ccc(Cl)cc1)c1ccc2c(c1)c(-c1cccc(Cl)c1)cc(=O)n2C [tipifarnib]
Method in brief: as §1

mubritinib = compound: FC(F)(F)c1ccc(/C=C/c2nc(COc3ccc(CCCCn4ccnn4)cc3)co2)cc1 [mubritinib]
Method in brief: as §1

[3] = compound: NC(=O)Nc1cc(-c2cccc(F)c2)sc1C(=O)N[C@H]1CCCNC1
Method in brief: as §1

[4] = compound: NC1(c2ccc(-c3nc4ccn5c(=O)[nH]nc5c4cc3-c3ccccc3)cc2)CCC1
Method in brief: as §1

entinostat = compound: Nc1ccccc1NC(=O)c1ccc(CNC(=O)OCc2cccnc2)cc1 [entinostat]
Method in brief: as §1

citarinostat = compound: O=C(CCCCCCNC(=O)c1cnc(N(c2ccccc2)c2ccccc2Cl)nc1)NO [citarinostat]
Method in brief: as §1

silmitasertib = compound: O=C(O)c1ccc2c(c1)nc(Nc1cccc(Cl)c1)c1ccncc12 [silmitasertib]
Method in brief: as §1

[5] = compound: c1cc(OCCN2CCCCC2)cc(-c2n[nH]c3ccc(-c4nnc[nH]4)cc23)c1
Method in brief: as §1

[6] = compound: Cc1cccc(CC(=O)N2CCc3c2ccc(-c2cn(C)c4ncnc(N)c24)c3F)n1
Method in brief: as §1

[7] = compound: NC(=O)c1cnc(N[C@@H]2CCCC[C@@H]2N)nc1Nc1cccc(-n2nccn2)c1
Method in brief: as §1

[8] = compound: NCC(=O)Nc1ccc(-n2nc(C(F)(F)F)cc2-c2ccc3c(ccc4ccccc43)c2)cc1
Method in brief: as §1

vorinostat = compound: O=C(CCCCCCC(=O)Nc1ccccc1)NO [vorinostat]
Method in brief: as §1

[9] = compound: O=C1NC(=O)C(c2cnc3ccccn23)=C1c1cn2c3c(cc(F)cc13)CN(C(=O)N1CCCCC1)CC2
Method in brief: as §1

nilotinib = compound: Cc1cn(-c2cc(NC(=O)c3ccc(C)c(Nc4nccc(-c5cccnc5)n4)c3)cc(C(F)(F)F)c2)cn1 [nilotinib]
Method in brief: as §1

[10] = compound: Cc1nc(Nc2n[nH]c3c2CN(C(=O)N[C@H](CN(C)C)c2ccccc2)C3(C)C)c2sccc2n1
Method in brief: as §1

[11] = compound: Cc1ncc(-c2ccnc(Nc3ccc(S(C)(=O)=O)cc3)n2)n1C(C)C
Method in brief: as §1

Target | log2 fold change (bafetinib) | log2 fold change (dasatinib) | log2 fold change [1] | log2 fold change [2] | log2 fold change (tipifarnib) | log2 fold change (mubritinib) | log2 fold change [3] | log2 fold change [4] | log2 fold change (entinostat) | log2 fold change (citarinostat) | log2 fold change (silmitasertib) | log2 fold change [5] | log2 fold change [6] | log2 fold change [7] | log2 fold change [8] | log2 fold change (vorinostat) | log2 fold change [9] | log2 fold change (nilotinib) | log2 fold change [10] | log2 fold change [11]
IRF2BP1 (UniProt Q8IU81) | inactive: -0.069 | inactive: -0.133 | inactive: -0.019 | inactive: 0.004 | inactive: -0.227 | inactive: -0.091 | inactive: -0.001 | inactive: -0.109 | inactive: 0.024 | inactive: 0.077 | inactive: -0.109 | inactive: 0.04 |  |  |  |  |  |  |  | 
IMPA2 (UniProt O14732) | inactive: -0.113 | inactive: -0.112 | inactive: 0.189 | inactive: -0.081 | inactive: -0.077 | inactive: 0.017 | inactive: 0.115 | inactive: 0.016 | inactive: 0.067 | inactive: -0.173 | inactive: -0.034 | inactive: 0.793 | inactive: 0.067 | inactive: 0.111 | inactive: -0.028 | inactive: 0.048 |  |  |  | 
IP6K1 (UniProt Q92551) | inactive: 0.02 | inactive: -0.361 | inactive: 0.024 | inactive: 0.116 | inactive: -0.038 | inactive: 0.137 | inactive: -0.039 | inactive: -0.457 | inactive: 0.089 | inactive: -0.02 | inactive: -0.059 | active: 0.858 | inactive: 0.033 | inactive: -0.253 |  | inactive: 0.138 | inactive: -0.048 |  |  | 
IKZF1 isoform 2 (UniProt Q13422) | inactive: -0.217 |  | inactive: -0.026 | inactive: 0.015 |  | inactive: -0.024 | inactive: 0.06 | inactive: -0.109 | inactive: -0.006 |  | inactive: 0.063 |  |  |  | inactive: 0.036 |  |  | inactive: 0.101 | inactive: -0.018 | inactive: 0.043
ITGB1BP1 (UniProt O14713) | inactive: 0.064 | inactive: 0.107 |  | inactive: 0.017 |  |  |  |  |  |  |  |  |  |  |  |  | inactive: -0.028 |  |  | 
IL27RA (UniProt Q6UWB1) | inactive: -0.098 | inactive: 0.055 | inactive: -0.039 | inactive: -0.109 | inactive: 0.159 | inactive: 0.005 | inactive: -0.077 | inactive: -0.116 | inactive: 0.016 | inactive: 0.082 | inactive: 0.009 | inactive: -0.172 |  | inactive: -0.091 | inactive: -0.123 |  | inactive: 0.154 | inactive: 0.086 | inactive: -0.06 | inactive: -0.006
IPO8 (UniProt O15397) | inactive: 0.012 | inactive: -0.098 | inactive: -0.185 | inactive: -0.098 | inactive: -0.053 |  | inactive: 0.032 |  | inactive: 0.061 | inactive: 0.011 |  | inactive: -0.057 |  | inactive: -0.014 | inactive: -0.067 |  | inactive: 0.169 |  |  | 
ILF3 (UniProt Q12906) | inactive: 0.084 |  |  |  |  | inactive: -0.074 | inactive: 0.013 | inactive: 0.331 | inactive: 0.058 | inactive: -0.134 | inactive: 0.181 | inactive: -0.218 |  |  |  |  | inactive: 0.174 | inactive: -0.065 | inactive: 0.167 | inactive: 0.364
IGKC (UniProt P01834) | inactive: 0.68 |  |  | inactive: 0.502 |  | inactive: -0.317 | inactive: 2.08 | inactive: 0.16 | inactive: 0.019 | inactive: 0.082 | inactive: 0.638 | inactive: 0.257 |  | inactive: 0.842 | inactive: -0.283 |  |  | inactive: 0.02 | inactive: -0.03 | inactive: 0.349
INO80E (UniProt Q8NBZ0) | inactive: 0.119 |  |  | inactive: 0.018 | inactive: 0.071 | inactive: -0.083 |  | inactive: -0.032 |  | inactive: -0.114 | inactive: 0.033 | inactive: -0.002 | inactive: -0.046 | inactive: 0.058 |  | inactive: 0.049 |  |  |  | 
INAFM2 (UniProt P0DMQ5) | inactive: -0.284 |  | inactive: 0.068 | inactive: -0.15 | inactive: 0.022 | inactive: -0.1 | inactive: 0.145 | inactive: -0.102 | inactive: -0.041 | inactive: 0.097 | inactive: -0.001 | inactive: 0.154 |  | inactive: -0.151 |  |  | inactive: 0 | inactive: -0.052 | inactive: -0.02 | inactive: -0.05
IGSF8 (UniProt Q969P0) | inactive: -0.006 | inactive: -0.08 | inactive: 0.024 | inactive: 0.116 | inactive: 0.114 | inactive: 0.114 |  | inactive: -0.105 |  | inactive: 0.049 | inactive: -0.031 | inactive: -0.236 | inactive: -0.073 | inactive: 0.037 | inactive: 0.09 | inactive: 0.195 | inactive: -0.027 |  |  | 
ITFG2 (UniProt Q969R8) | inactive: -0.097 | inactive: 0.047 | inactive: -0.046 | inactive: 0.03 | inactive: -0.131 | inactive: 0.013 | inactive: 0.005 | inactive: -0.163 | inactive: 0.038 |  | inactive: 0.073 |  |  | inactive: -0.141 | inactive: -0.047 |  | inactive: -0.137 | inactive: -0.02 | inactive: 0.025 | inactive: -0.084
IGFBP3 isoform 2 (UniProt P17936) |  | inactive: -0.001 | inactive: 0.106 |  | inactive: -0.087 |  | inactive: 0.042 |  | inactive: -0.02 |  |  |  | inactive: 0.043 | inactive: -0.142 | inactive: -0.043 | inactive: 0.167 | inactive: -0.047 |  |  | 
IQGAP3 (UniProt Q86VI3) |  |  |  | inactive: -0.012 |  |  |  |  |  |  |  |  |  |  |  |  |  |  |  | 
IFT20 isoform 2 (UniProt Q8IY31) |  |  |  | inactive: 0.368 |  | inactive: 0.309 | inactive: -0.022 | inactive: -0.072 | inactive: 0.019 | inactive: 0.019 | inactive: 0.028 | inactive: 0.077 |  |  |  |  |  | inactive: -0.016 | inactive: -0.017 | inactive: -0.007

Copied from the list.
log2 fold change (dasatinib), ITGB1BP1 (UniProt O14713) reads inactive: 0.107
log2 fold change [2], IFT20 isoform 2 (UniProt Q8IY31) reads inactive: 0.368
